Results reported in patent EP0063826A2, “2-Amino-benzoic-acid derivatives, their preparation and their use as medicines or intermediates” (Dr. Karl Thomae GmbH, priority 1980, dated 1981).
At least one structure is not confirmed: it was looked up by name or label, or the drawing left a doubt.

Tested on: Mäusen
Assay: Acute oral toxicity in mice (orienting)
Assay type: in vivo
Conditions: 5 female and 5 male, single dose by gavage in methylcellulose suspension, observation 14 days
Protocol: Die akute Toxizität wurde orientierend an Gruppen von 10 Mäusen (5 weibliche und 5 männliche Mäuse; Beobachtungszeit: 14 Tage) nach Gabe einer Dosis von 2 000 mg/kg pro Tier in Methylcellulose-Suspension per Schlundsonde bestimmt: […]

O=C(O)c1cc(Cl)ccc1N1CCC2(CC1)OCCO2 [Substanz A, 5-Chlor-2-(1,4-dioxa-8-aza-spiroL4,6/decan-8-yl)-benzoe-säure]
perorale Toxizität: > 2 000 mg/kg
